In PMC10921949, “Multivalent coiled-coil interactions enable full-scale centrosome assembly and strength” (The Journal of Cell Biology, 2024) one finds binding data, which are given here for two molecules.

The target in test [1] is T1, SPD-5, full length, phosphorylated by constitutively active PLK-1 (C. elegans), P91349.
T1 chain: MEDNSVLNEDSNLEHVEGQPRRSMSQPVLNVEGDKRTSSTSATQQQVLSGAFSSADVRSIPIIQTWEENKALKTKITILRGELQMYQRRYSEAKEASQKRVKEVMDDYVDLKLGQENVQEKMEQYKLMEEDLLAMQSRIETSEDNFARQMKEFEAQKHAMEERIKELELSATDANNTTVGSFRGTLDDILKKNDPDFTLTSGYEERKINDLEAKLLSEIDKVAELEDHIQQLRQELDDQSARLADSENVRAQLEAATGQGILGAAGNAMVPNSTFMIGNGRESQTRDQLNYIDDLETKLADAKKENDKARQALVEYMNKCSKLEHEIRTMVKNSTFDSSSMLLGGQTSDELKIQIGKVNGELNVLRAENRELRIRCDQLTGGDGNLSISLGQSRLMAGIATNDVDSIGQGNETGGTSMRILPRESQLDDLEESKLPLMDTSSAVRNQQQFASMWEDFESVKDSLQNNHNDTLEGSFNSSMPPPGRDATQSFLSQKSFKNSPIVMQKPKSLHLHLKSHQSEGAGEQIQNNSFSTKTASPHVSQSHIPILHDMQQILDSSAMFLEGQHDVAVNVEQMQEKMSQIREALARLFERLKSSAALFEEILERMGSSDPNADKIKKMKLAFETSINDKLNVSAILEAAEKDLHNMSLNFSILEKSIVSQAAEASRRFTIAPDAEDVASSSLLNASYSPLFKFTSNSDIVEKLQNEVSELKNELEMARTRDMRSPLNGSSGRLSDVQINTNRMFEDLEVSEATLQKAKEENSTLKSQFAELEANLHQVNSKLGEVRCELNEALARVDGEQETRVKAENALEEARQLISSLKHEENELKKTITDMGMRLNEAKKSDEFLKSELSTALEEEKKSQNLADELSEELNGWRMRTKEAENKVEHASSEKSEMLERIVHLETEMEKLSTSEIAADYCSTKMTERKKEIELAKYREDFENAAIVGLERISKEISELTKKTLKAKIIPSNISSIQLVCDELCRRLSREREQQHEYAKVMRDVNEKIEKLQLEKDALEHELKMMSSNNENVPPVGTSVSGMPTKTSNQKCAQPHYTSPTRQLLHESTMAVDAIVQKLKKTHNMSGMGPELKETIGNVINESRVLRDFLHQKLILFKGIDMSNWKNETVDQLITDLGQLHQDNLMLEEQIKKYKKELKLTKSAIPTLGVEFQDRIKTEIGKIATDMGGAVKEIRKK
As to the kind of experiment: cross-linking; XL-MS with the zero-length crosslinker DMTMM (8 mM, 45 min, room temperature) on 1 uM dephosphorylated SPD-5 + 1 uM PLK-1 (KD or CA), 0.2 mM ATP, 10 mM MgCl2, 150 mM KCl, 25 mM HEPES pH 7.4, 0.5 mM DTT, 2 h; SDS-PAGE multimer bands excised and analysed by MS; crosslinks also found in monomer bands subtracted; n = 6 replicates; both purified. As to conditions: remark: other sources report otherwise.

For test [2], the target named is SPD-5, full length, dephosphorylated (incubated with kinase-dead PLK-1) (C. elegans) (UniProt P91349). The test is described as above.

No constants are given. Whether binding was seen depends on the method and setting. Some results given as binding are weak or reduced against the parent protein; the word gives no strength.

B1: SPD-5, full length, phosphorylated by constitutively active PLK-1, P91349 1-1198 (protein)
chain: MEDNSVLNEDSNLEHVEGQPRRSMSQPVLNVEGDKRTSSTSATQQQVLSGAFSSADVRSIPIIQTWEENKALKTKITILRGELQMYQRRYSEAKEASQKRVKEVMDDYVDLKLGQENVQEKMEQYKLMEEDLLAMQSRIETSEDNFARQMKEFEAQKHAMEERIKELELSATDANNTTVGSFRGTLDDILKKNDPDFTLTSGYEERKINDLEAKLLSEIDKVAELEDHIQQLRQELDDQSARLADSENVRAQLEAATGQGILGAAGNAMVPNSTFMIGNGRESQTRDQLNYIDDLETKLADAKKENDKARQALVEYMNKCSKLEHEIRTMVKNSTFDSSSMLLGGQTSDELKIQIGKVNGELNVLRAENRELRIRCDQLTGGDGNLSISLGQSRLMAGIATNDVDSIGQGNETGGTSMRILPRESQLDDLEESKLPLMDTSSAVRNQQQFASMWEDFESVKDSLQNNHNDTLEGSFNSSMPPPGRDATQSFLSQKSFKNSPIVMQKPKSLHLHLKSHQSEGAGEQIQNNSFSTKTASPHVSQSHIPILHDMQQILDSSAMFLEGQHDVAVNVEQMQEKMSQIREALARLFERLKSSAALFEEILERMGSSDPNADKIKKMKLAFETSINDKLNVSAILEAAEKDLHNMSLNFSILEKSIVSQAAEASRRFTIAPDAEDVASSSLLNASYSPLFKFTSNSDIVEKLQNEVSELKNELEMARTRDMRSPLNGSSGRLSDVQINTNRMFEDLEVSEATLQKAKEENSTLKSQFAELEANLHQVNSKLGEVRCELNEALARVDGEQETRVKAENALEEARQLISSLKHEENELKKTITDMGMRLNEAKKSDEFLKSELSTALEEEKKSQNLADELSEELNGWRMRTKEAENKVEHASSEKSEMLERIVHLETEMEKLSTSEIAADYCSTKMTERKKEIELAKYREDFENAAIVGLERISKEISELTKKTLKAKIIPSNISSIQLVCDELCRRLSREREQQHEYAKVMRDVNEKIEKLQLEKDALEHELKMMSSNNENVPPVGTSVSGMPTKTSNQKCAQPHYTSPTRQLLHESTMAVDAIVQKLKKTHNMSGMGPELKETIGNVINESRVLRDFLHQKLILFKGIDMSNWKNETVDQLITDLGQLHQDNLMLEEQIKKYKKELKLTKSAIPTLGVEFQDRIKTEIGKIATDMGGAVKEIRKK
modifications: here or on the partner: phosphorylated by PLK-1(CA); all sites are listed in Data S1; phosphorylated by PLK-1(CA); all sites are listed in Data S1
Consider B1, for which the binding result in test [1] was “binds”.

B2: SPD-5, full length, dephosphorylated (incubated with kinase-dead PLK-1) (protein, UniProt P91349 1-1198)
chain: MEDNSVLNEDSNLEHVEGQPRRSMSQPVLNVEGDKRTSSTSATQQQVLSGAFSSADVRSIPIIQTWEENKALKTKITILRGELQMYQRRYSEAKEASQKRVKEVMDDYVDLKLGQENVQEKMEQYKLMEEDLLAMQSRIETSEDNFARQMKEFEAQKHAMEERIKELELSATDANNTTVGSFRGTLDDILKKNDPDFTLTSGYEERKINDLEAKLLSEIDKVAELEDHIQQLRQELDDQSARLADSENVRAQLEAATGQGILGAAGNAMVPNSTFMIGNGRESQTRDQLNYIDDLETKLADAKKENDKARQALVEYMNKCSKLEHEIRTMVKNSTFDSSSMLLGGQTSDELKIQIGKVNGELNVLRAENRELRIRCDQLTGGDGNLSISLGQSRLMAGIATNDVDSIGQGNETGGTSMRILPRESQLDDLEESKLPLMDTSSAVRNQQQFASMWEDFESVKDSLQNNHNDTLEGSFNSSMPPPGRDATQSFLSQKSFKNSPIVMQKPKSLHLHLKSHQSEGAGEQIQNNSFSTKTASPHVSQSHIPILHDMQQILDSSAMFLEGQHDVAVNVEQMQEKMSQIREALARLFERLKSSAALFEEILERMGSSDPNADKIKKMKLAFETSINDKLNVSAILEAAEKDLHNMSLNFSILEKSIVSQAAEASRRFTIAPDAEDVASSSLLNASYSPLFKFTSNSDIVEKLQNEVSELKNELEMARTRDMRSPLNGSSGRLSDVQINTNRMFEDLEVSEATLQKAKEENSTLKSQFAELEANLHQVNSKLGEVRCELNEALARVDGEQETRVKAENALEEARQLISSLKHEENELKKTITDMGMRLNEAKKSDEFLKSELSTALEEEKKSQNLADELSEELNGWRMRTKEAENKVEHASSEKSEMLERIVHLETEMEKLSTSEIAADYCSTKMTERKKEIELAKYREDFENAAIVGLERISKEISELTKKTLKAKIIPSNISSIQLVCDELCRRLSREREQQHEYAKVMRDVNEKIEKLQLEKDALEHELKMMSSNNENVPPVGTSVSGMPTKTSNQKCAQPHYTSPTRQLLHESTMAVDAIVQKLKKTHNMSGMGPELKETIGNVINESRVLRDFLHQKLILFKGIDMSNWKNETVDQLITDLGQLHQDNLMLEEQIKKYKKELKLTKSAIPTLGVEFQDRIKTEIGKIATDMGGAVKEIRKK
As to B2, the binding entry in test [2] was “binds weakly”.
